# Data as given in PubChem BioAssay AID330 (DTP/NCI, 2004).
# The list is a part of this screen's results and no random one: it gathers tests that were run many times, whatever their T/C, doses with no T/C, and many T/C values between a quarter and a half above the control. Other doses and runs of a compound stand elsewhere. T/C gives the treated animals as a percentage of the vehicle group. For survival time, the PubChem record calls one and a half times the control and up active, and a quarter to a half above the control has no call in these data; cut-offs in other NCI protocols can differ. Schedules are NCI's codes, taken here to give the interval after Q, in days (D) or hours (H), and the number of doses after X. Some T/C values carry the count of animals alive at the toxicity check (mostly the fifth day); without a count, all were alive then. Some entries were tested several times; the values are given in rising order. Marks such as (2×) count equal records among those shown.
# System: P388 leukemia ip, CD2F1 mice, survival T/C
# Assay: NCI In Vivo Anticancer Drug Screen. Data for tumor model P388 Leukemia (intraperitoneal) in CD2F1 (CDF1) mice
# Details: T/C endpoint: median survival time, higher T/C = longer survival
compound,measurement,setting,value
COc1cccc2c1C(=O)c1c(O)c3c(c(O)c1C2=O)C[C@@](O)(C(=O)CO)C[C@@H]3OC1CC(N)C(O)C(C)O1 (stereo partly specified),T/C,"dose: 0.05 mg/kg/injection, schedule: Q01DX009 (ip), vehicle: water",128 % of control
same,T/C,"dose: 0.06 mg/kg/injection, schedule: Q01DX005 (ip), vehicle: water",129 % of control
same,T/C,"dose: 0.06 mg/kg/injection, schedule: Q01DX009 (ip), vehicle: saline",134 % of control
same,T/C,"dose: 0.06 mg/kg/injection, schedule: Q01DX009 (ip), vehicle: water","136, 140, 149 % of control"
same,T/C,"dose: 0.06 mg/kg/injection, schedule: Q04DX003 (ip), vehicle: saline",133 % of control
same,T/C,"dose: 0.1 mg/kg/injection, schedule: Q01DX009 (ip), vehicle: water",134 % of control
same,T/C,"dose: 0.1 mg/kg/injection, schedule: Q04DX003 (ip), vehicle: saline",126 % of control
same,T/C,"dose: 0.12 mg/kg/injection, schedule: Q01DX005 (ip), vehicle: water, evaluated on day 35",133 % of control
same,T/C,"dose: 0.12 mg/kg/injection, schedule: Q01DX005 (ip), vehicle: water, evaluated on day 60",141 % of control
same,T/C,"dose: 0.12 mg/kg/injection, schedule: Q01DX009 (ip), vehicle: water",143 and 146 % of control
same,T/C,"dose: 0.12 mg/kg/injection, schedule: Q04DX003 (ip), vehicle: saline","98 [5 of 6 alive], 103, 106, 115, 120 % of control"
same,T/C,"dose: 0.13 mg/kg/injection, schedule: Q01DX009 (ip), vehicle: saline",140 % of control
same,T/C,"dose: 0.13 mg/kg/injection, schedule: Q01DX009 (ip), vehicle: water",148 % of control
same,T/C,"dose: 0.14 mg/kg/injection, schedule: Q01DX009 (ip), vehicle: saline, evaluated on day 45",147 % of control
same,T/C,"dose: 0.14 mg/kg/injection, schedule: Q01DX009 (ip), vehicle: saline, evaluated on day 60",143 % of control
same,T/C,"dose: 0.14 mg/kg/injection, schedule: Q04DX003 (ip), vehicle: saline",133 % of control
same,T/C,"dose: 0.14 mg/kg/injection, schedule: Q04DX003 (ip), vehicle: water",137 % of control
same,T/C,"dose: 0.2 mg/kg/injection, schedule: Q01DX009 (ip), vehicle: water, evaluated on day 30","146 (2×), 150, 151, 152, 160 (2×), 161, 164, 165 (2×), 166 (2×), 169 % of control"
same,T/C,"dose: 0.2 mg/kg/injection, schedule: Q01DX009 (ip), vehicle: water, evaluated on day 45","146 (2×), 149, 152, 154 (3×), 155 (2×), 156, 159 (2×), 160, 161, 163, 165 (3×), 170, 172, 175 (2×), 192, 216 % of control"
same,T/C,"dose: 0.2 mg/kg/injection, schedule: Q04DX003 (ip), vehicle: saline",134 % of control
same,T/C,"dose: 0.2 mg/kg/injection, schedule: Q04DX003 (ip), vehicle: water",147 % of control
same,T/C,"dose: 0.23 mg/kg/injection, schedule: Q01DX009 (ip), vehicle: saline",137 % of control
same,T/C,"dose: 0.25 mg/kg/injection, schedule: Q01DX009 (ip), vehicle: saline, evaluated on day 5",154 and 203 % of control
same,T/C,"dose: 0.25 mg/kg/injection, schedule: Q01DX009 (ip), vehicle: saline, evaluated on day 30","100 [8 of 10 alive], 122, 182 % of control"
same,T/C,"dose: 0.25 mg/kg/injection, schedule: Q01DX009 (ip), vehicle: saline, evaluated on day 45","150, 153, 161 % of control"
same,T/C,"dose: 0.25 mg/kg/injection, schedule: Q01DX009 (ip), vehicle: saline, evaluated on day 60","118, 165, 175 % of control"
same,T/C,"dose: 0.25 mg/kg/injection, schedule: Q01DX009 (ip), vehicle: water, evaluated on day 5",152 % of control
same,T/C,"dose: 0.25 mg/kg/injection, schedule: Q01DX009 (ip), vehicle: water, evaluated on day 30","100 [5 of 6 alive], 103, 110, 136, 141, 146, 148, 149, 150, 152, 153, 155, 157 (2×), 160, 161 (2×), 162, 164, 166, 167, 169, 170, 171 (2×), 172 (2×), 176, 177, 178, 180 (2×), 207, 209 % of control"
same,T/C,"dose: 0.25 mg/kg/injection, schedule: Q01DX009 (ip), vehicle: water, evaluated on day 45","146, 149 (2×), 152 (2×), 153, 158, 159, 163, 166, 168 (2×), 171, 174, 175, 178 (3×), 181 (2×), 182 (2×), 184, 198, 209, 238 % of control"
same,T/C,"dose: 0.25 mg/kg/injection, schedule: Q01DX009 (ip), vehicle: water, evaluated on day 60",150 % of control
same,T/C,"dose: 0.25 mg/kg/injection, schedule: Q03HX008 (ip), vehicle: saline",126 % of control
same,T/C,"dose: 0.25 mg/kg/injection, schedule: Q04DX003 (ip), vehicle: saline","100, 108, 109, 118, 128 % of control"
same,T/C,"dose: 0.3 mg/kg/injection, schedule: Q04DX003 (ip), vehicle: saline",149 % of control
same,T/C,"dose: 0.39 mg/kg/injection, schedule: Q01DX009 (ip), vehicle: saline, evaluated on day 30",130 % of control [9 of 10 alive]
same,T/C,"dose: 0.39 mg/kg/injection, schedule: Q01DX009 (ip), vehicle: saline, evaluated on day 45",150 % of control
same,T/C,"dose: 0.39 mg/kg/injection, schedule: Q01DX009 (ip), vehicle: saline, evaluated on day 60",170 and 172 % of control
same,T/C,"dose: 0.39 mg/kg/injection, schedule: Q01DX009 (ip), vehicle: water, evaluated on day 30","159, 161, 164 (2×), 169, 172, 175 (2×), 184, 188, 192, 202 % of control"
same,T/C,"dose: 0.39 mg/kg/injection, schedule: Q01DX009 (ip), vehicle: water, evaluated on day 45","146, 154, 161, 163, 164, 168, 170 (2×), 171 (2×), 172, 176, 178, 181, 183, 187, 189 (2×), 191 (2×), 192, 195, 201, 205, 252 % of control"
same,T/C,"dose: 0.5 mg/kg/injection, schedule: Q01DX001 (ip), vehicle: saline, evaluated on day 5",140 % of control
same,T/C,"dose: 0.5 mg/kg/injection, schedule: Q01DX001 (ip), vehicle: saline, evaluated on day 7",135 % of control
same,T/C,"dose: 0.5 mg/kg/injection, schedule: Q01DX001 (ip), vehicle: saline, evaluated on day 45",114 % of control [7 of 8 alive on day 9]
same,T/C,"dose: 0.5 mg/kg/injection, schedule: Q01DX001 (ip), vehicle: saline, evaluated on day 60",115 % of control
same,T/C,"dose: 0.5 mg/kg/injection, schedule: Q01DX009 (ip), vehicle: saline, evaluated on day 5",155 and 192 % of control
same,T/C,"dose: 0.5 mg/kg/injection, schedule: Q01DX009 (ip), vehicle: saline, evaluated on day 30","115 [9 of 10 alive], 120, 166 % of control"
same,T/C,"dose: 0.5 mg/kg/injection, schedule: Q01DX009 (ip), vehicle: saline, evaluated on day 45","173, 178, 192 % of control [7 of 8 alive]"
same,T/C,"dose: 0.5 mg/kg/injection, schedule: Q01DX009 (ip), vehicle: saline, evaluated on day 60","118, 162, 187 % of control"
same,T/C,"dose: 0.5 mg/kg/injection, schedule: Q01DX009 (ip), vehicle: water, evaluated on day 5",180 % of control
same,T/C,"dose: 0.5 mg/kg/injection, schedule: Q01DX009 (ip), vehicle: water, evaluated on day 30","109 [5 of 6 alive], 115, 127, 137, 149 (2×), 156, 163 (2×), 163 [5 of 6 alive], 165, 166, 168, 171, 173 (2×), 175 (2×), 178 (2×), 182, 184, 186, 187, 188, 189, 190, 193, 195, 204, 206, 210, 217, 218, 223 % of control"
same,T/C,"dose: 0.5 mg/kg/injection, schedule: Q01DX009 (ip), vehicle: water, evaluated on day 45","142, 162, 169, 172, 173 (3×), 174, 178, 179, 183, 186 (2×), 188, 189, 192 (2×), 195, 198 (2×), 209 (2×), 213, 214, 219, 220 % of control"
same,T/C,"dose: 0.5 mg/kg/injection, schedule: Q01DX009 (ip), vehicle: water, evaluated on day 60",174 % of control
same,T/C,"dose: 0.5 mg/kg/injection, schedule: Q03HX008 (ip), vehicle: saline",135 % of control
